Measured values taken from PubChem BioAssay AID1508600 (Functional Genomics Laboratory (NCATS/FGL), 2020).
About 3,700 (7%) of roughly 53,000 sequences were called active.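 The calls were made as follows: active = gene knockdowns whose robust z-score for IL-1 alpha signal is at least 2 or at most -2, so actives lie on both sides; inactive = the rest.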 This is one part of the list.

Experiment: Components of the Cytosolic LPS Sensing Pathway: Gene Identification via Genome-wide siRNA Screen;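 also: robust z of the log signal after scaling to non-targeting control siRNA wells of the plate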
Conditions: RAW264.7 macrophages, IL-1a HTRF, actives lie on both sides, screened at 100 nM (by protocol), cells primed 5 h with Pam3CSK4 first
Method in brief: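 Read-out: IL-1a HTRF on supernatant, divided by plate negative-control median ×100, log-transformed and converted to robust z-score. Cells were RAW264.7 given 100 nM siRNA, Pam3CSK4-primed 5 hours, then LipidA-transfected 24 hour.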
For GGCAGUAAGAACUACUAAATT against Ric1, the z-score was active: 2.65.
For GCCUGGACCUUAAUUACUUTT against Ptpn14, the z-score was inactive: 1.01.
With GAGAAUUAAAGUCAAACGUTT against Tasp1 the z-score was inactive: -0.429.
For GCUUCGUUACGACGAUGAGTT against Ndufs3, the z-score was inactive: 0.674.
In the case of GGCAAAAUCUCCUCUAUCUTT against Olfr905, the z-score is reported as inactive: -1.03.
With GGUUGAAGGAGUGUUUUAUTT against Rtcb the z-score was active: 2.09.
With GGAGAAAAGCUGUAUACACTT against Tmem177 the z-score was inactive: 1.22.
With CCAGUGAUUAUCUUUAAUGTT against Slc9c1 the z-score was inactive: -0.435.
With CCUAAACCAGUCUUUUCUCTT against Cnep1r1 the z-score was inactive: 0.369.
With GCCCUUGCCUCUGUAGAUGTT against Olfr857 the z-score was inactive: 0.312.
For CGCAUAUAUGUGUGUCGCCTT against Tmem125, the z-score was inactive: 0.256.
For GGAGUUUGACAAAGAGAAATT against Mlc1, the z-score was inactive: -0.181.
In the case of GGACACAUUAUCCAGUGACTT against Tmem91, the z-score is reported as inactive: 1.15.
For GGUGGCUCAAUUCUUGAAGTT against Tagln, the z-score was inactive: 0.806.
In the case of GGCCGUGUGCAUCUUUGUGTT against Gpr20, the z-score is reported as inactive: 1.43.
For GGAAAUCUUAACUAGUAUGTT against Nutf2, the z-score was inactive: 1.45.
In the case of GGAAAGCAAAAGUUUACAATT against Mdh1b, the z-score is reported as inactive: -0.458.
In the case of GCUGAUGAUCUACAUCUCCTT against Srd5a3, the z-score is reported as inactive: 0.768.
For GCGAUAAAACCCUAAAGCUTT against Wdr83, the z-score was inactive: 0.055.
With CGCAUUGAUUCAUUUAAUGTT against Abca8a the z-score was inactive: -0.383.
In the case of GCUUGAUUUUAUGUUAGCUTT against Hapln1, the z-score is reported as inactive: -1.28.
In the case of CGGAGCAUGAGCCAGAUAUTT against Eipr1, the z-score is reported as inactive: -0.266.
In the case of GGGUUUCAGAACUGAGUUATT against Saa1, the z-score is reported as inactive: -0.28.
In the case of GGUGCUAUUUACCAAACUCTT against Btg2, the z-score is reported as inactive: 1.82.
With GGUAUUGACAGAAUGAGUUTT against Zfp109 the z-score was inactive: -0.464.
For GGAGUUAAUCAGUCAAAUGTT against Dclk2, the z-score was inactive: 0.754.
In the case of CGUUUCUGUGGACAGAAUUTT against Pip4p1, the z-score is reported as inactive: -0.836.
For GGCGAAGUGGUUAAAAGUGTT against Ifnar1, the z-score was inactive: -0.141.
For GGUUUUGUGGGAAGAGUCATT against Ccdc163, the z-score was active: -2.99.
For GGAAGAGGAGGAGCUGAUGTT against Speer4f1, the z-score was inactive: -0.56.
For GGUGGAGGUCUGGUUUAAGTT against Gsc, the z-score was inactive: -0.4.
With GGUACUGCUAAGCAAAGUCTT against Zdhhc3 the z-score was inactive: 1.82.
With CGGAAAAAUUCGGAAAGAATT against Tulp4 the z-score was inactive: 1.62.
In the case of GGGCAUCGAUAUCAUGCUATT against Epb41l1, the z-score is reported as inactive: -0.387.
With GGACCUGUUUGAUUUGGUGTT against Nf2 the z-score was inactive: 0.8.
For GGAGAGGAUGCAUGUAAAATT against Fbxl22, the z-score was inactive: -1.19.
In the case of GCUAUGUGGGAAGUUUCAUTT against Tmem263, the z-score is reported as inactive: 0.924.
In the case of CCCAAAGUUACAACACUGUTT against Gm5142, the z-score is reported as inactive: 0.216.
In the case of GGAUGAGCUCAAGAAGUCCTT against Snrpa, the z-score is reported as inactive: 0.698.
In the case of GCCAUUUAUUGAAACUCGCTT against Becn1, the z-score is reported as inactive: -0.905.
With AAUGUAGUCAAAUCAAAGATT against Sprr2a1 the z-score was inactive: -0.326.
In the case of GCUGGAUCGUUACGUUUAUTT against Mios, the z-score is reported as inactive: 0.507.
In the case of CCAAAACAAGAAUCAUAUGTT against Clca3b, the z-score is reported as inactive: -1.35.
With GCAGAGACGUGAUUGAUCGTT against H2bc18 the z-score was inactive: -1.17.
With GGUGCCUGAGGUUCUUUUUTT against Actrt1 the z-score was inactive: 0.751.
In the case of “GGUGUGACGGUGCCUAUAUTT against D10Wsu102e”, the z-score is reported as inactive: -0.929.
In the case of CCUUGAUGACGAAAACAUATT against Plekha2, the z-score is reported as inactive: -1.43.
In the case of GGAGCUGUGCAAGAGGAAATT against Wnt16, the z-score is reported as inactive: 1.01.
For GGGAGUCCUUUUCAAACCATT against Cldn15, the z-score was inactive: -0.461.
With GGGUUUGACAAAAUUGACCTT against Nudt6 the z-score was inactive: -0.983.
With CAGUAGGUAUGUUCACUGGTT against Olfr1000 the z-score was inactive: -1.79.
In the case of CCACCUAUCAGGAUUCAACTT against Sf3b6, the z-score is reported as active: -3.37.
In the case of GGAUCUAAGGAAGUUUCUGTT against Gfpt2, the z-score is reported as inactive: 0.594.
With GGUGUCAACCAGUUGUUUUTT against Nr2c1 the z-score was inactive: -1.2.
For GGUUGAUGUGGAGAAGGUGTT against Gnaq, the z-score was inactive: 0.786.
For GCGACGUAAAUUUUGCUUUTT against Tlr5, the z-score was inactive: 1.55.
With GGCAGGAGAUGGUAACUGCTT against Phc2 the z-score was inactive: 1.08.
With GCACCUUAUGGGUAGAAAATT against Mtmr2 the z-score was inactive: -0.0164.
In the case of GCUGACAUUGAGAAUCGGGTT against Ptpn6, the z-score is reported as inactive: -0.0671.
In the case of GCAAGACCCGUCACAAUCUTT against Slc16a9, the z-score is reported as inactive: 0.013.
With CCUUCAGCAAUCUCAGAAATT against Olfr295 the z-score was inactive: 1.64.
With GGCCUUAGAACAAGGAAUATT against Cdk7 the z-score was inactive: -0.769.
With GGGUCAUCUGUAAUUUCCATT against Cst10 the z-score was inactive: -0.424.
For CCCAGCAGGCCAUAUUAGUTT against Cks1b, the z-score was inactive: 0.377.
For GGGAGUUGGUGGAAUGCUUTT against Ech1, the z-score was inactive: -0.221.
In the case of GGAUAGACAUCAGAAACUATT against Ranbp17, the z-score is reported as inactive: 1.18.
In the case of GGACAAUGAUUUUCUGAUUTT against Sv2b, the z-score is reported as inactive: 0.962.
In the case of GGCCUUUGGGAAAACAUGGTT against Zcchc14, the z-score is reported as active: -2.16.
In the case of GGAUGACCUUUCAUUCAAATT against Cep295, the z-score is reported as inactive: 0.476.
In the case of GGUGUUUGACACUCAAGCATT against Vmn1r75, the z-score is reported as inactive: 0.521.
With GGUCGAAAGAUUCCUGAAGTT against Hs3st1 the z-score was inactive: -0.324.
For GGAAAGAGAGUCUUAAAUGTT against Cyb5r4, the z-score was inactive: 0.863.
With GCAUGGAGGACUUUGUCACTT against Imp3 the z-score was inactive: -1.26.
For GCCAUUACAAGAGCUGUUCTT against Myt1l, the z-score was inactive: 1.29.
For GCUGGAGAAAGCGGAGAUATT against Hes7, the z-score was inactive: 0.747.
For GGAUCUGAAGACAUGGAGATT against H2-M1, the z-score was inactive: 0.659.
In the case of GGAAGAAACGGAGACUCAATT against Dpf1, the z-score is reported as inactive: 0.052.
For CCACAAGAUUGUUUCAGAATT against Lingo4, the z-score was inactive: 0.216.
In the case of GGUGUCCUGGCUGUAUGCATT against Gfra4, the z-score is reported as inactive: -1.09.
With GGCCAGUUCUCGUUUGGAATT against Dr1 the z-score was inactive: 0.884.
With GGUGUGUAAUGUGCGUGAGTT against Ephb3 the z-score was inactive: 1.11.
In the case of CCGAAAGAUCAGCACAUCCTT against Olfr24, the z-score is reported as inactive: -0.184.
With “GGGAUGUUUAGGUCACCUUTT against 4933434M16Rik” the z-score was active: -2.35.
In the case of GGUUCAGAUGUCUGAUAAATT against Mrm3, the z-score is reported as inactive: 1.43.
With GGAAUUUGGUGACGACAAGTT against Ing4 the z-score was inactive: -0.467.
For GCUUGCUAGAUUGGUGUUGTT against Arhgap17, the z-score was active: 3.32.
With GCUUAUGAUGUAUUUCGUGTT against Ttpa the z-score was inactive: 0.134.
With “GGCAAGCAAGCAUAUUAUCTT against D830013H23Rik” the z-score was inactive: 0.252.
With GGAUGAAAGCCAUUAAGUUTT against Tifa the z-score was inactive: -0.251.
With CCCUAAGGCAUUAUUAUUCTT against Nkd1 the z-score was inactive: 1.27.
With GGUGUGCCUAUGUUAUAGUTT against Slc13a5 the z-score was inactive: -0.982.
In the case of GCCUCUAAGCUACACUACATT against Olfr1289, the z-score is reported as inactive: -0.0553.
In the case of GCCCUUUUCCUUAAUUUAUTT against Neurl1a, the z-score is reported as inactive: 0.669.
For GGUGGUGCUUUACGUCAAATT against Bzw2, the z-score was inactive: -0.268.
With GGAACCUACCUCACCUUUGTT against Fscn3 the z-score was inactive: -0.749.
With GGCUUUUAAGUUCUUCCAGTT against Ptbp3 the z-score was active: 2.44.
In the case of GGAAUCUCAAGAGCUACAGTT against Ccl7, the z-score is reported as inactive: -0.52.
For GGAAAUAAACACUAUGCAUTT against Zfp33b, the z-score was inactive: -1.16.
With CGAUCUCCCAGGCAAUAACTT against Llcfc1 the z-score was inactive: -0.882.
For GGGUUCGAGAAAAAAUUGATT against Ubxn1, the z-score was inactive: 0.383.
In the case of GGAGCCAAAUAUUAGCGCGTT against Mgp, the z-score is reported as inactive: -0.0563.
For GGAUGAGGAGGAAAAGCUGTT against Nop2, the z-score was inactive: -1.86.
With GGGCUGGCAGAAUAGCAUCTT against Foxl2 the z-score was inactive: 0.592.
In the case of GGUGCUGGACAAAUUGAGATT against Cgas, the z-score is reported as inactive: -0.189.
For CCUGGCCAUGUCGAAAGAUTT against Pla2g6, the z-score was inactive: 0.716.
With GGACAUGGAGAUUAGAGUCTT against Tcl1b4 the z-score was inactive: -0.479.
In the case of GGUCUAUCUACGCUGUGUUTT against Cd36, the z-score is reported as inactive: -1.28.
